The list shows only some results of the screen, not a fair sample: it gathers tests that were run many times, whatever their T/C, doses with no T/C, and many T/C values between a quarter and a half above the control. Other doses and runs of a compound stand elsewhere. T/C is the treated group as % of the vehicle group. Some entries give survivors of the animals treated and no T/C: the source holds a T/C of zero for them, seemingly a mark for toxic or unscored doses. Some survivor counts are full or nearly so, which does not show that the dose was tolerated: the source hardly ever lists a survival T/C far under the control, and the zero likely stands for such cases as well. Counts of survivors are from the toxicity check (mostly the fifth day) where no day follows; animals may have died later. Schedules are NCI's codes, read here as Q, the interval in days (D) or hours (H), X, the number of doses. Some entries were tested several times; the results are listed from low to high. For survival time, the PubChem record calls one and a half times the control and up active, and a quarter to a half above the control has no call in these data; cut-offs in other NCI protocols can differ. Some T/C values carry the count of animals alive at the toxicity check (mostly the fifth day); where none is given, no animal had died by that day.
System: P388 leukemia ip, CD2F1 mice, survival T/C
Test: NCI In Vivo Anticancer Drug Screen. Data for tumor model P388 Leukemia (intraperitoneal) in CD2F1 (CDF1) mice
Details: T/C endpoint: median survival time, higher T/C = longer survival
[1] = dose: 120.0 mg/kg/injection, schedule: Q01DX005 (ip), vehicle: saline
[2] = dose: 240.0 mg/kg/injection, schedule: Q01DX005 (ip), vehicle: saline
[3] = dose: 400.0 mg/kg/injection, schedule: Q04DX003 (ip), vehicle: saline with Tween-80
[4] = dose: 50.0 mg/kg/injection, schedule: Q01DX009 (ip), vehicle: saline with Tween-80
[5] = dose: 100.0 mg/kg/injection, schedule: Q01DX009 (ip), vehicle: saline with Tween-80
[6] = dose: 200.0 mg/kg/injection, schedule: Q01DX009 (ip), vehicle: saline with Tween-80
[7] = dose: 200.0 mg/kg/injection, schedule: Q01DX005 (ip), vehicle: saline with Tween-80

## CC1=CC(=O)[C@@H](O)[C@]2(C)[C@H]3[C@@]4(O)OC[C@]35[C@H]([C@@H](C)[C@H]4O)[C@@H](OC(=O)CC(C)C)C(=O)O[C@@H]5C[C@@H]12
dose: 1.0 mg/kg/injection, schedule: Q01DX005 (ip), vehicle: saline + alcohol
  T/C: 126 % of control
dose: 2.0 mg/kg/injection, schedule: Q01DX005 (ip), vehicle: saline + alcohol
  T/C: 130 [5 of 6 alive] and 140 % of control [5 of 6 alive]
dose: 4.0 mg/kg/injection, schedule: Q01DX005 (ip), vehicle: saline + alcohol
  survivor count: 0 of 6
dose: 8.0 mg/kg/injection, schedule: Q01DX005 (ip), vehicle: saline + alcohol
  survivor count: 0 of 6

## CC(C)Oc1nc(N2CCNCC2)nc2c1CCC2
dose: 60.0 mg/kg/injection, schedule: Q01DX005 (ip), vehicle: saline
  survivor count: 4 of 6
[1]
  survivor count: 0 of 6
[2]
  survivor count: 0 of 6

## C1=CCOCOC1
dose: 200.0 mg/kg/injection, schedule: Q01DX009 (ip), vehicle: saline with Tween-80, evaluated on day 20
  T/C: 136 % of control [5 of 6 alive]
dose: 200.0 mg/kg/injection, schedule: Q01DX009 (ip), vehicle: saline with Tween-80, evaluated on day 30
  T/C: 133 % of control
dose: 400.0 mg/kg/injection, schedule: Q01DX009 (ip), vehicle: saline with Tween-80
  survivor count: 0 of 6 and 1 of 6

## CN(C)C1=CC(=Nc2ccccc2)SC(C)(C)C1
dose: 120.0 mg/kg/injection, schedule: Q01DX005 (ip), vehicle: Klucel (hydroxypropylcellulose) (HPC)
  survivor count: 0 of 6
dose: 240.0 mg/kg/injection, schedule: Q01DX005 (ip), vehicle: Klucel (hydroxypropylcellulose) (HPC)
  survivor count: 0 of 6

## NNC(N)=NC1CCCCC1
dose: 200.0 mg/kg/injection, schedule: Q01DX005 (ip), vehicle: Klucel (hydroxypropylcellulose) (HPC)
  survivor count: 0 of 5

## c1ccc(P2CCc3[nH]c4ccccc4c3C2)cc1 (centres undefined)
[3]
  T/C: 135 % of control

## CCCCN(CCCC)CC(O)c1cc(-c2ccc(C(F)(F)F)cc2)nc(-c2ccc(C(F)(F)F)cc2)c1 (centres undefined)
[4]
  survivor count: 6 of 6
[5]
  survivor count: 6 of 6
[6]
  survivor count: 4 of 6

## CC[N+](C)(C)c1ccc(/C=C(/C#N)C(=O)OC)cc1
[6]
  survivor count: 2 of 6

## CC1CC(=O)c2c(CO)nn(CCCO)c2C1 (centres undefined)
[1]
  survivor count: 5 of 6
[2]
  survivor count: 5 of 6

## C[S+](C)CCCNC(=O)c1csc(-c2csc(-c3ccccc3)n2)n1
dose: 50.0 mg/kg/injection, schedule: Q01DX005 (ip), vehicle: water
  survivor count: 0 of 6
dose: 100.0 mg/kg/injection, schedule: Q01DX005 (ip), vehicle: water
  survivor count: 0 of 6
dose: 200.0 mg/kg/injection, schedule: Q01DX005 (ip), vehicle: water
  survivor count: 0 of 6

## CCOC(=O)c1ccc(NC(=O)Nc2n[nH]c(NC(=O)Nc3ccc(C(=O)OCC)cc3)n2)cc1
dose: 200.0 mg/kg/injection, schedule: Q01DX009 (ip), vehicle: distilled water + Tween-80
  survivor count: 5 of 6
dose: 400.0 mg/kg/injection, schedule: Q01DX009 (ip), vehicle: distilled water + Tween-80
  survivor count: 0 of 6

## C/C(=N\NC(=S)N1CCCCC1C)c1nccs1 (centres undefined)
dose: 50.0 mg/kg/injection, schedule: Q01DX005 (ip), vehicle: saline with Tween-80
  T/C: 130 % of control
dose: 100.0 mg/kg/injection, schedule: Q01DX005 (ip), vehicle: saline with Tween-80
  survivor count: 4 of 6 and 5 of 6
[7]
  survivor count: 0 of 6

## O=CC(=O)c1cccc([N+](=O)[O-])c1
dose: 25.0 mg/kg/injection, schedule: Q01DX009 (ip), vehicle: saline with Tween-80
  T/C: 127 % of control
[4]
  T/C: 126 and 130 % of control
[5]
  T/C: 126 and 130 % of control
[6]
  survivor count: 5 of 6

## C=CCSc1cccc2ccccc12
[6]
  survivor count: 3 of 6

## COC(=O)c1c([As](C)C)n[n]([Sn]([CH3])([CH3])[CH3])c1C(=O)OC
dose: 25.0 mg/kg/injection, schedule: Q04DX003 (ip), vehicle: saline
  survivor count: 0 of 6
dose: 100.0 mg/kg/injection, schedule: Q04DX003 (ip), vehicle: saline with Tween-80
  survivor count: 0 of 6
dose: 200.0 mg/kg/injection, schedule: Q04DX003 (ip), vehicle: saline with Tween-80
  survivor count: 0 of 6
[3]
  survivor count: 0 of 6

## [N-]=[N+]=Nc1ccc(SSCCC(=O)ON2C(=O)CCC2=O)cc1
[7]
  survivor count: 0 of 5

## COc1ccc2nc3cc(Cl)ccc3c(NC(C)CCCN(CCCl)CCCl)c2c1 (centres undefined)
dose: 5.0 mg/kg/injection, schedule: Q04DX003 (ip), vehicle: saline
  survivor count: 2 of 6
dose: 10.0 mg/kg/injection, schedule: Q04DX003 (ip), vehicle: saline
  survivor count: 1 of 6
dose: 20.0 mg/kg/injection, schedule: Q04DX003 (ip), vehicle: saline
  survivor count: 0 of 6

## ClCCCCOCBr
[1]
  survivor count: 6 of 6

## O=C(O)CN(CCN1CC(=O)OC(=O)C1)CCN1CC(=O)OC(=O)C1
[2]
  survivor count: 1 of 6

## O/N=C(\C[P+](c1ccccc1)(c1ccccc1)c1ccccc1)c1ccccc1
dose: 50.0 mg/kg/injection, schedule: Q01DX009 (ip), vehicle: Klucel (hydroxypropylcellulose) (HPC)
  survivor count: 3 of 6
dose: 100.0 mg/kg/injection, schedule: Q01DX009 (ip), vehicle: Klucel (hydroxypropylcellulose) (HPC)
  survivor count: 0 of 6
dose: 200.0 mg/kg/injection, schedule: Q01DX009 (ip), vehicle: Klucel (hydroxypropylcellulose) (HPC)
  survivor count: 0 of 6

## CCOP(=S)(OCC)OC(=O)C(C)SSC (centres undefined) (tested in a mixture with another compound)
dose: 240.0 mg/kg/injection, schedule: Q01DX005 (ip), vehicle: saline with Tween-80
  survivor count: 0 of 6

## C[n+]1c(SCC(=O)O)sc2ccccc21
dose: 100.0 mg/kg/injection, schedule: Q01DX009 (ip), vehicle: saline
  T/C: 128 and 137 % of control
dose: 200.0 mg/kg/injection, schedule: Q01DX009 (ip), vehicle: saline
  survivor count: 3 of 6
